Laboratory results from article doi:10.1101/2025.09.18.677151.

Protein sequences, listed by entry. Tags and fused reporters are not part of them. Lines headed by an entry give the natural chain unless they say otherwise; changes in a name come on top.
UniProt P40120: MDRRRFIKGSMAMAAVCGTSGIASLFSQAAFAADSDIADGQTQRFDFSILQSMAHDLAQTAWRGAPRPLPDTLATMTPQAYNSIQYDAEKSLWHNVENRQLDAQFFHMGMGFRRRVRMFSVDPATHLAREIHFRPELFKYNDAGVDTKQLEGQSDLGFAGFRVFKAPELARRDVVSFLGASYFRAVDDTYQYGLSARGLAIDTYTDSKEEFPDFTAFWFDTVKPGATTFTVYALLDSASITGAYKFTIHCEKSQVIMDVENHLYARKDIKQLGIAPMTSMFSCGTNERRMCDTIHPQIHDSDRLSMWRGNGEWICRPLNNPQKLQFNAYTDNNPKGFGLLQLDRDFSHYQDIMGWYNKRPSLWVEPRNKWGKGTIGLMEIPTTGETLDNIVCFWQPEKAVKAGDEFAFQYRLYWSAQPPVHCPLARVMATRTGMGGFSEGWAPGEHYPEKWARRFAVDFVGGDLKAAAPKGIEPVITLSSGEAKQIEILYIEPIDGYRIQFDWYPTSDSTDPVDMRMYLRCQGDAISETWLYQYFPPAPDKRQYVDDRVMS

Biological target: T1, E. coli TatC (subunit of the overexpressed TatBC complex) (E. coli) (UniProt P69423)
T1 sequence: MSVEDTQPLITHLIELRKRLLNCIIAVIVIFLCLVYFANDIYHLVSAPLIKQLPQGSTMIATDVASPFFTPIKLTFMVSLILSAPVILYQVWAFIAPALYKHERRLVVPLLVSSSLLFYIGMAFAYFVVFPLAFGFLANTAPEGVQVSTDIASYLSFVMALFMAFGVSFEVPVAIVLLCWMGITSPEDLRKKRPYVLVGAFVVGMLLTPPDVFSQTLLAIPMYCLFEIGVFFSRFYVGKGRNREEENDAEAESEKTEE
Assay: cryo-EM structure

binding: binds
Substance: E. coli MdoD, full length with its Tat signal peptide (from UniProt P40120)

No constants are given. Whether binding was seen depends on the method and setting. Binding calls can cover weak binding; strength is not graded here.
